According to PubChem BioAssay AID652054 (National Center for Advancing Translational Sciences (NCATS), 2013):
About 9,100 (2.5%) of roughly 360,000 compounds were called active. The inconclusive results got no clear call from the source; some entries with a clear call stand among them for comparison. Rule as the data show it: active = max response below about -50%; inconclusive = no clear call, values can overlap the other calls; inactive = above that.
% is scaled to controls: 0 for no effect and ±100 for the full control effect.

The chains behind the UniProt entries cited, without tags or fusion partners.
UniProt P35462, whole entry, looked up: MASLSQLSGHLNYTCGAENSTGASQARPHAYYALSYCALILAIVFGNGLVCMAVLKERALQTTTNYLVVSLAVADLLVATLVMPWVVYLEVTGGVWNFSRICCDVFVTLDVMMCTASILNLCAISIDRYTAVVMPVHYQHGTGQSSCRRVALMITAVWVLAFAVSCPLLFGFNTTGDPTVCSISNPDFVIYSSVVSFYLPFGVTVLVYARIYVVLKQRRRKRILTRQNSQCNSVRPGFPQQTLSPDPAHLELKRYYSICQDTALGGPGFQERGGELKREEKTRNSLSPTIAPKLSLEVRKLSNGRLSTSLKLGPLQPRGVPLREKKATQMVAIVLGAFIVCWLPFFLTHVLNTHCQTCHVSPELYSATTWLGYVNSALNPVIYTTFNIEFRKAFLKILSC

These compounds were tested against D(3) dopamine receptor (Homo sapiens) (UniProt P35462) (assay: qHTS of D3 Dopamine Receptor Antagonist: qHTS). Conditions: D3R cells, DiscoveRx beta-arrestin luminescence, antagonist mode; active compounds read low.
In short: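 Cells plated overnight at 1500 cells/well, then exposed to library compounds with dopamine controls for 90 minutes at 37 degrees C. DiscoveRx reagent added for 30–60 minutes at room temperature; luminescence read, quantitative HTS format.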
With `Cc1cc(C)c(C#N)c(N2CCN(S(=O)(=O)Cc3ccccc3)CC2)n1` the max response, negative = inhibition was inactive: -6.75%.
`Cc1ccccc1NC1=NC(C)(C)N=C(N)N1` was tested, and the max response, negative = inhibition was inconclusive: -44.1%.
For `OCCNc1nc2ccccc2nc1NCCO`, the max response, negative = inhibition was inactive: 9.63%.
In the case of `COc1ccc(NC(=O)C(=O)c2cn(CC(=O)N3CCCC3)c3ccccc23)cc1`, the max response, negative = inhibition is reported as inconclusive: -33.4%.
For `COc1cccc(/C=C2\SC(=S)N(c3cccnc3)C2=O)c1OC`, the max response, negative = inhibition was inactive: 11.9%.
With `Cc1cc(C)c2c(-n3cccc3)c(C(=O)NNS(=O)(=O)c3ccccc3)sc2n1` the max response, negative = inhibition was active: -54.8%.
For `O=S(=O)(CCNCCc1ccccc1)NCc1ccccc1`, the max response, negative = inhibition was inconclusive: -32%.
In the case of `O=C(c1ccc(NC2=NC3CS(=O)(=O)CC3S2)cc1)N1CCN(c2ccccc2F)CC1` (stereo not drawn), the max response, negative = inhibition is reported as active: -61%.
In the case of `Cc1cn([C@H]2C[C@H](O)[C@@H](CNC(=O)[C@@H]3CCCN3Cc3ccccc3)O2)c(=O)[nH]c1=O`, the max response, negative = inhibition is reported as inactive: 0.945%.
In the case of `COc1cc(C2C(C(=O)c3ccc(C)o3)=C(O)C(=O)N2c2cc(C)on2)ccc1O` (stereo not drawn), the max response, negative = inhibition is reported as inconclusive: -41.8%.
With `COc1ccccc1-c1nnc(SCC(=O)c2ccc(C3CCCCC3)cc2)n1Cc1ccco1` the max response, negative = inhibition was inconclusive: -44.8%.
With `CCCCCCN1CCN(C2CN(Cc3ccc([N+](=O)[O-])cc3)S(=O)(=O)C2)CC1` (stereo not drawn) the max response, negative = inhibition was inconclusive: -47.9%.
For `CC(C)CCNc1nc(N2CCCC2)c2c(c1C#N)CCN(C)C2`, the max response, negative = inhibition was active: -65.7%.
With `CC1(C)C(=O)Nc2ccccc2N1C(=O)COc1ccc(S(=O)(=O)N2CCOCC2)cc1Cl` the max response, negative = inhibition was inconclusive: -41.9%.
For `COc1ccc(-n2c(C)cc(C(=O)CN3C(=O)NC4(CCc5ccccc54)C3=O)c2C)cc1` (stereo not drawn), the max response, negative = inhibition was inconclusive: -33.6%.
`CCOC(=O)CC(=O)COc1nc2cc3c(nc2o1)CCCC3` was tested, and the max response, negative = inhibition was inactive: -5.98%.
With `CN(C)CCN(C(=O)c1ccc2ccccc2c1)c1nc2c(F)cccc2s1` the max response, negative = inhibition was inconclusive: -30.7%.
For `COc1cc(OC)c(/C=N/NC(=O)c2ccc([N+](=O)[O-])cc2)cc1Br`, the max response, negative = inhibition was inconclusive: -41.5%.
With `O=C(Nc1cccc2ccccc12)N1N=CCC1c1ccccc1` (stereo not drawn) the max response, negative = inhibition was inconclusive: -31%.
`CCC(=O)N1CCN(c2ccc(Cl)cc2NC(=S)NC(=O)c2ccco2)CC1` was tested, and the max response, negative = inhibition was inactive: 9.14%.
In the case of `C=CCn1c(SC(C)C(=O)NC2(C#N)CCCCC2)nnc1-c1ccc(OC)cc1` (stereo not drawn), the max response, negative = inhibition is reported as inconclusive: -37.9%.
For `CCCOc1cccc(C(=O)NC(=S)Nc2cccc(C(F)(F)F)c2)c1`, the max response, negative = inhibition was inconclusive: -37.7%.
In the case of `COc1ccc(S(=O)(=O)NC(C)C(=O)Nc2ccccc2)cc1Cl` (stereo not drawn), the max response, negative = inhibition is reported as inactive: 4.75%.
For `COc1cccc(OCc2nnc(SCC(=O)NCc3ccco3)n2CCc2ccccc2)c1`, the max response, negative = inhibition was inconclusive: -31.3%.
`COc1ccc(CCC(=O)Nc2ccc(N3CCOCC3)cc2)cc1` was tested, and the max response, negative = inhibition was inconclusive: -40%.
`O=C(Cc1ccccc1)N/N=C/c1cc(Br)cc(Cl)c1O` was tested, and the max response, negative = inhibition was inconclusive: -36.6%.
In the case of `CCOc1ccc(NC(=O)CN(C)Cc2ccc3c(c2)OCO3)cc1S(=O)(=O)N1CCCC1`, the max response, negative = inhibition is reported as active: -68.2%.
`C[C@@H](NC(=O)C1(c2ccccc2)CCN(C(=O)OC(C)(C)C)CC1)C(=O)N[C@@H](C(=O)O)c1ccccc1` was tested, and the max response, negative = inhibition was inconclusive: -43.8%.
With `Cc1c(C(=O)Nc2ccc3c(c2)OCO3)sc2nc(-c3ccccc3)cn12` the max response, negative = inhibition was inactive: 19.9%.
In the case of `Cc1cc(OCc2cc(C(=O)N(C)C3CCOCC3)no2)cc(C)c1Cl`, the max response, negative = inhibition is reported as inactive: 0.0669%.
With `O=C(NCCCn1ccnc1)/C(=C/c1ccc(Cl)cc1)NC(=O)c1ccccc1` the max response, negative = inhibition was inactive: 2.95%.
With `Cc1nnc(SC(C)C(=O)Nc2ccc(Cl)cn2)n1Cc1ccccc1` (stereo not drawn) the max response, negative = inhibition was inconclusive: -31.3%.
With `O=C(C[C@H]1C[C@H](C(=O)N2CCCCC2)[C@@]2(CCc3ccccc3)c3[nH]c4ccc(Cl)cc4c3CCN2C1=O)NCCc1ccccn1` the max response, negative = inhibition was inconclusive: -40.8%.
`CC(C)C[C@@H](CN)NC(=O)c1nc[nH]c1C(=O)N[C@@H](C)C(=O)CNC[C@H](C)NC(=O)c1nc[nH]c1C(=O)N[C@@H](C)C(=O)O` was tested, and the max response, negative = inhibition was inconclusive: -42.7%.
For `CCN1CCN(c2ccc(NC(=O)c3ccccc3F)cc2Cl)CC1`, the max response, negative = inhibition was inconclusive: -30.1%.
For `CN1CCN(S(=O)(=O)c2ccc(NC(=S)NC(=O)C3CCC3)cc2)CC1`, the max response, negative = inhibition was inconclusive: -34.7%.
In the case of `Cc1cccc(C)c1NC(=O)C[N+](C)(C)CC(O)COc1cccc2ccccc12` (stereo not drawn), the max response, negative = inhibition is reported as active: -52.1%.
For `COc1ccccc1COCC(O)CNCC1(N2CCCCC2)CCCCC1` (stereo not drawn), the max response, negative = inhibition was active: -60.3%.
With `Cc1cc(S(=O)(=O)Nc2cc(C)c(O)c(C)c2)c(C)s1` the max response, negative = inhibition was inconclusive: -45.7%.
With `O=C(Cn1c(=O)c2sccc2n(Cc2cccc([N+](=O)[O-])c2)c1=O)NCCc1ccccc1` the max response, negative = inhibition was inconclusive: -36.1%.
For `COc1ccc(/C(O)=C2/C(=O)C(=O)N(CCN(C)C)C2c2cccnc2)cc1OC` (stereo not drawn), the max response, negative = inhibition was inconclusive: -34.8%.
`Cc1ccc2c(c1)N(CCC(=O)NCc1ccc3c(c1)OCO3)C(=O)CO2` was tested, and the max response, negative = inhibition was inconclusive: -39.7%.
In the case of `COc1ccc(CNC(=O)CCS(=O)(=O)Cc2ccc(C)cc2)c(OC)c1`, the max response, negative = inhibition is reported as inconclusive: -32.6%.
In the case of `O=C(c1c[nH]c(C(=O)C(Cl)(Cl)Cl)c1)c1ccc(F)cc1Cl`, the max response, negative = inhibition is reported as inactive: -9%.
`NC(Cc1ccc(C(F)(F)F)cc1)c1csc(Nc2ccc(C(=O)NCc3ccco3)cn2)n1` (stereo not drawn) was tested, and the max response, negative = inhibition was inconclusive: -46.5%.
`CCc1cc(SC#N)cc(C)c1NC(=O)CCl` was tested, and the max response, negative = inhibition was active: -56.3%.
With `Oc1c(N=Nc2ccccc2)sc2ccccc12` the max response, negative = inhibition was inconclusive: -34.4%.
With `O=C(O)CCSCC(=O)c1ccc2c(c1)OCCO2` the max response, negative = inhibition was inconclusive: -43.8%.
`Cc1ccc(C)c(OCc2nnc(SCC(=O)NCc3ccc4c(c3)OCO4)o2)c1` was tested, and the max response, negative = inhibition was inconclusive: -30.6%.
`O=C1CCC/C=C\C[C@@H](CC(=O)N(CCO)Cc2ccccc2)C(=O)N2CCC[C@H]2CO1` was tested, and the max response, negative = inhibition was inconclusive: -40.4%.
`N#C/C(=C/c1ccc(N2CCOCC2)o1)C(=O)NC1CCCCC1` was tested, and the max response, negative = inhibition was inactive: -15%.
For `CC(=O)Nc1ccc(S(=O)(=O)NC2(C(F)(F)F)C(=O)Nc3c2c(=O)[nH]c(=O)n3C)cc1` (stereo not drawn), the max response, negative = inhibition was inconclusive: -30.4%.
In the case of `CCC(NC(=O)N(Cc1ccccc1)Cc1ccc2c(c1)OCO2)(C(F)(F)F)C(F)(F)F`, the max response, negative = inhibition is reported as inconclusive: -32.7%.
With `Cc1ccccc1OC1CCN(C(=O)c2cc(COc3ccccc3)on2)CC1` the max response, negative = inhibition was inactive: -0.58%.
In the case of `Cc1cc(C)c(NC(=O)CNC(=O)c2cc(C3CC3)nn2-c2ccccc2)c(C)c1`, the max response, negative = inhibition is reported as inconclusive: -41.2%.
For `O=C1C(=C(c2ccccc2)N2CCOCC2)Cc2ccccc21`, the max response, negative = inhibition was active: -125%.
With `Cc1csc(SCC(=O)Nc2c(C)n(C)n(-c3ccccc3)c2=O)n1` the max response, negative = inhibition was inconclusive: -30.1%.
With `CCOC(=O)C1C(=O)NC(N2CCN(Cc3ccccc3)CC2)=NC1c1ccco1` (stereo not drawn) the max response, negative = inhibition was inactive: 4.97%.
With `Cc1cc(-c2nnc(CCC(=O)N(C)Cc3cccc4ccccc34)o2)no1` the max response, negative = inhibition was inactive: -18.5%.
With `Cn1c(-c2ccc(C(C)(C)C)cc2)n[nH]c1=S` the max response, negative = inhibition was inconclusive: -44.4%.
In the case of `Cc1ccc(NC(=O)Cc2n[nH]c(=O)c3ccccc23)cc1S(=O)(=O)N1CCCCCC1`, the max response, negative = inhibition is reported as inactive: -9.91%.
`N/C(=N\O)c1ccc(N2CCN(c3ncccc3C(F)(F)F)CC2)nc1` was tested, and the max response, negative = inhibition was inactive: 40.2%.
In the case of `OCCC1CN(Cc2nc3ccccc3s2)CCN1C1CCCC1` (stereo not drawn), the max response, negative = inhibition is reported as inactive: 2.61%.
For `C/C(=N\NC(=O)c1csc(C)c1C)c1ccc(C)s1`, the max response, negative = inhibition was inconclusive: -48%.
`CC(=O)c1coc2ccc(OCCN3CCCCC3)cc12` was tested, and the max response, negative = inhibition was active: -83.5%.
In the case of `C[C@@H]1CN([C@@H](C)CO)C(=O)c2cc(NC(=O)Nc3ccc4c(c3)OCO4)ccc2O[C@H]1CN(C)S(=O)(=O)c1ccc(F)cc1`, the max response, negative = inhibition is reported as inconclusive: -34%.
With `COc1ccc(-n2cnnc2SCC(=O)N(C)C2CCS(=O)(=O)C2)cc1` (stereo not drawn) the max response, negative = inhibition was inconclusive: -40.4%.
For `COc1cccc(CN2CCN(C(=S)NCc3ccc(Cl)cc3)CC2)c1`, the max response, negative = inhibition was inactive: 0.602%.
For `CC(=O)Nc1cc(-c2ccccc2N(C)C)cn2c(-c3ccc(F)c(Cl)c3)cnc12`, the max response, negative = inhibition was active: -55.6%.
`Cc1ccc(N=C2N=C(N)c3ccccc32)c(C)c1` was tested, and the max response, negative = inhibition was inconclusive: -32%.
In the case of `CC(C)NC(=O)C1C(c2ccccc2)=Nc2ccccc2N1C(=O)c1ccc(C(F)(F)F)cc1` (stereo not drawn), the max response, negative = inhibition is reported as inconclusive: -45.4%.
With `c1ccc2c(-c3c[nH]c4ccccc34)c3ccccc3nc2c1` the max response, negative = inhibition was active: -53.3%.
`CCCN(CC1COc2ccccc2O1)C(=S)Nc1ccc(C)cc1` (stereo not drawn) was tested, and the max response, negative = inhibition was active: -53.1%.
In the case of `CCOC(=O)c1nn(-c2ccc3c(c2)OCO3)cc1O`, the max response, negative = inhibition is reported as inactive: 13.6%.
`COC(=O)c1sc2ccccc2c1-n1cccc1C(=O)C(=O)Nc1ccccc1` was tested, and the max response, negative = inhibition was inconclusive: -42.4%.
With `Cc1ccc(OCCCN2CCOCC2)cc1` the max response, negative = inhibition was inconclusive: -32%.
For `C#CCOCCOCCOCCNc1nc(N2CCN(C(=O)C([C@@H](C)O)n3cc([C@@H](N)CCCCN)nn3)CC2)nc(N2CCN(C(=O)[C@H](CCC(=O)O)n3cc([C@@H](N)[C@H](C)CC)nn3)CC2)n1` (stereo partly drawn), the max response, negative = inhibition was inconclusive: -41.7%.
`COc1cccc(CCC2C(=O)CCCC2=O)c1` was tested, and the max response, negative = inhibition was inactive: -7.4%.
`O=C(Cn1cnc2c(nnn2-c2cccc(Cl)c2)c1=O)N1CCCC1` was tested, and the max response, negative = inhibition was inactive: -7.04%.
With `O=C(COC(=O)C1Cc2ccccc2CN1C(=O)c1ccccc1Cl)Nc1ccc(N2CCOCC2)cc1` (stereo not drawn) the max response, negative = inhibition was inconclusive: -34.6%.
For `C[C@H]1NC(=O)[C@@]2(C)[C@H](c3ccccc3)[C@H]3COc4ccccc4[C@@H]3N2C1=O`, the max response, negative = inhibition was inactive: 7.41%.
In the case of `CCOC(=O)C(=CNc1ccccc1C)C(=O)OCC`, the max response, negative = inhibition is reported as inactive: 46.1%.
With `N#Cc1ccc(C23CC4(C2)[C@H](CN(P(=O)(c2ccccc2)c2ccccc2)[C@@H]4c2ccccc2)C3c2ccc(Cl)nc2)cc1` (stereo partly drawn) the max response, negative = inhibition was inconclusive: -49.5%.
